Data published in publication PMC3406092.
For at least one entry, the source does not settle the construct or the ends of the probe. Weaker means in comparison with the reference protein, sequence or condition of that experiment. Tags and fusion partners may be left off the protein sequences shown. At least one verdict rests on a figure or table, not on a statement of the authors.

Molecular target: T1, MecI (UniProt P68261)
T1 sequence (looked up, limits assumed): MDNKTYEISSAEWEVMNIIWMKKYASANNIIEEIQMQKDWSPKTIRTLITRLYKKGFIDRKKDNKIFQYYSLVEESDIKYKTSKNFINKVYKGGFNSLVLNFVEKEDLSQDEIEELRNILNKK
Experiment: EMSA
Settings: DIG Gel Shift Kit (Roche), manufacturer's recommendations, pH and temperature not stated, recombinant protein

TATATACCAAACCCGACAACTACAACTATTAAAATAAGTGGAACAATTTTTATCTTTTTCATCAATATCCTCCTTATATAAGACTACATTTGTAGTATATTACAAATGTAGTATTTATGTCAAAATAATGTTATAATTTTTGTGATATGGAGGTGTAGAAGGTGTTATCATCTTTTTTAATGTTAAGTATAATCAGTTCATTGCTCACGATAT (double strand) [PmecA 212 bp]
binding result (plus MBP (control), no specific inhibition, label: DIG, probe letters rebuilt from the primers and the genome): binds | binding result (plus MecR2 at MecR2:MecI ratio below one (MecI in excess), label: DIG, probe letters rebuilt from the primers and the genome): binds more weakly

TTGACATAAATACTACATTTGTAATATACTACAAATGTA / AGACTACATTTGTAGTATATTACAAATGTAGTATTTATG [MI-Box 39 bp]
binding result (no MecR2): binds | binding result (plus MecR2 at ratio below one, same results as 212 bp): binds more weakly | binding result (plus excess MecR2, same results as 212 bp): binds
